Test results taken from US20110207656A1.
No constants are given. Whether binding was seen depends on the method and setting. In cells and extracts the contact can be indirect. Some results given as binding are weak or reduced against the parent protein; the word gives no strength.

Chains of the proteins cited; added tags and fusions are not shown. Lines headed by an entry give the natural chain unless they say otherwise; changes in a name come on top.
UniProt Q14790: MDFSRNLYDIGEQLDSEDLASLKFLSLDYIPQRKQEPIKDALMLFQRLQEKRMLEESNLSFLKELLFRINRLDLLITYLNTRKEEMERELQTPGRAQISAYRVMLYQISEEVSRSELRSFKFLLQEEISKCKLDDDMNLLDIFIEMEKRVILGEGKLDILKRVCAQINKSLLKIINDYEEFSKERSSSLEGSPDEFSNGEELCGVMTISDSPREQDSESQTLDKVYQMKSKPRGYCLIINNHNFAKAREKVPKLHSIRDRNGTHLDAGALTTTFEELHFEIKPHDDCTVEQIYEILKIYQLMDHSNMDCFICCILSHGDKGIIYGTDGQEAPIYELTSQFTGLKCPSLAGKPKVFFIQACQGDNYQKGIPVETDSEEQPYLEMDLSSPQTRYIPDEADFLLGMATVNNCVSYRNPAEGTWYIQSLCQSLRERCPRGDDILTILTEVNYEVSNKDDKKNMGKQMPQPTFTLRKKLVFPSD

Target: His-caspase-8(184-384) (human) (UniProt Q14790)
Assay: competition GST pull-down: peptide in increasing amounts against GST-MUC1-CD(1-20) for His-caspase-8-p18 (FIG. 9D, lower)

B1: synthetic MUC1-CD(1-20) peptide (peptide)
peptide: CQCRRKNYGQLDIFPARDTY
B1 was tested, and the binding was “binds”.
